{
  "source": "patent US20140088073A1",
  "about": "“METHODS FOR DETERMINING WHETHER A PATIENT SHOULD BE ADMINISTERED A DRUG THAT INHIBITS CHOLESTEROL ABSORPTION” (Boston Heart Diagnostics Corporation, priority 2012, published 2014)",
  "origin": "cited, not measured here",
  "test_system": "patients with coronary heart disease",
  "settings": "comparing sterol/cholesterol ratios; previous studies; cited from earlier work",
  "note": "At least one compound was matched to its structure with a doubt left.",
  "data": [
    {"smiles": "CCC(C)(C)C(=O)O[C@H]1C[C@@H](C)C=C2C=C[C@H](C)[C@H](CC[C@@H]3C[C@@H](O)CC(=O)O3)[C@H]21", "note": "[Simvastatin, simvastatin]", "values": [
      {"measurement": "increase of plant sterols", "value": 39, "unit": "%"},
      {"measurement": "reduction of precursor sterols", "value": "−42", "unit": "%"}
    ]}
  ]
}
